Measured values taken from article PMC3642679.
Results are given in words; binding and its absence hold for the method and conditions named. Some binding calls cover weakened binding; strength is not graded here.

Chains of the proteins cited; added tags and fusions are not shown.
UniProt P0A988: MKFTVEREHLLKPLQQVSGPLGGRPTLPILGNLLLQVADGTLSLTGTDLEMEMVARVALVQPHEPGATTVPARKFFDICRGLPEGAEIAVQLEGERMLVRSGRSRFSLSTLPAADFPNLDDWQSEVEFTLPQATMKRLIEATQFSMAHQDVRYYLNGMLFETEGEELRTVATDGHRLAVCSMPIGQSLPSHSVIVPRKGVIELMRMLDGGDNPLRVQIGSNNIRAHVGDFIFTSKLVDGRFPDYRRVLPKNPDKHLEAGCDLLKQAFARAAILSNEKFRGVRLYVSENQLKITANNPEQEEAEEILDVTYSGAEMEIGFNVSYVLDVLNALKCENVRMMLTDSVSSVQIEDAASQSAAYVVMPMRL

Legend:
[1] = biological target: DNA sliding clamp (β subunit) (E. coli) (UniProt P0A988); assay: SEC; Pol IV 20 μM with clamp 10 μM (dimer), alone; fractions by SDS-PAGE; both purified
[2] = biological target: DNA sliding clamp (β subunit) (E. coli) (UniProt P0A988); assay: SEC; competition: Pol IV 20 μM and clamp 10 μM (dimer) with exonuclease 10 μM and/or Pol III or its C-terminal deletions (Pol III 10 μM); fractions by SDS-PAGE; both purified

binding [1]: binds | binding [2]: binds
B1: translesion DNA polymerase IV (Pol IV) (enzyme, UniProt Q47155 1-351)
chain: MRKIIHVDMDCFFAAVEMRDNPALRDIPIAIGGSRERRGVISTANYPARKFGVRSAMPTGMALKLCPHLTLLPGRFDAYKEASNHIREIFSRYTSRIEPLSLDEAYLDVTDSVHCHGSATLIAQEIRQTIFNELQLTASAGVAPVKFLAKIASDMNKPNGQFVITPAEVPAFLQTLPLAKIPGVGKVSAAKLEAMGLRTCGDVQKCDLVMLLKRFGKFGRILWERSQGIDERDVNSERLRKSVGVERTMAEDIHHWSECEAIIERLYPELERRLAKVKPDLLIARQGVKLKFDDFQQTTQEHVWPRLNKADLIATARKTWDERRGGRGVRLVGLHVTLLDPQMERQLVLGL
